From publication PMC5078065

The chains behind the UniProt entries cited, without tags or fusion partners.
UniProt P20700: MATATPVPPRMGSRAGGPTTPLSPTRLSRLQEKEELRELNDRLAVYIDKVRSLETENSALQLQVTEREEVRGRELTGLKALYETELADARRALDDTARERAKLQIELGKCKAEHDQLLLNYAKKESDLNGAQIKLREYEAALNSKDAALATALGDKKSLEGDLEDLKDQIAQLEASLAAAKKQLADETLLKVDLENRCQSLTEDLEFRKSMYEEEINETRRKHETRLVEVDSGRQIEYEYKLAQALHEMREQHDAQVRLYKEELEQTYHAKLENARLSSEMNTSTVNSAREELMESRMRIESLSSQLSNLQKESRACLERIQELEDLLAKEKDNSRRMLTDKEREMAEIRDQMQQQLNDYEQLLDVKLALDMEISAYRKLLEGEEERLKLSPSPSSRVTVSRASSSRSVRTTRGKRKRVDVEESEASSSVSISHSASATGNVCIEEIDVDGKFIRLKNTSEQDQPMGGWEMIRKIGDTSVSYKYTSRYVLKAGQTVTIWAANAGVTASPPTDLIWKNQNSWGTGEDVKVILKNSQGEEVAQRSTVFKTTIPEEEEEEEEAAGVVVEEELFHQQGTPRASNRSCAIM
UniProt P06733: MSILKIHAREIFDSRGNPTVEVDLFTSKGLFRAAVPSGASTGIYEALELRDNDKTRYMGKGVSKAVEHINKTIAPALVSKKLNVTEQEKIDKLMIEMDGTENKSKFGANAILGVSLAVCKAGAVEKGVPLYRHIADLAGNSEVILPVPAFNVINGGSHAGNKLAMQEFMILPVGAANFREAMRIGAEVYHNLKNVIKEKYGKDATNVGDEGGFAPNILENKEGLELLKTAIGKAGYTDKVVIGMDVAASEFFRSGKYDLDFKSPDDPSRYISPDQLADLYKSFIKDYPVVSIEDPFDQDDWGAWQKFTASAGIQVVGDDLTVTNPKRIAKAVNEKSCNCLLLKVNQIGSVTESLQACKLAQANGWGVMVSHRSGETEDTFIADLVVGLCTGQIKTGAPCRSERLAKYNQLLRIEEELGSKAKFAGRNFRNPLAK
UniProt P08670: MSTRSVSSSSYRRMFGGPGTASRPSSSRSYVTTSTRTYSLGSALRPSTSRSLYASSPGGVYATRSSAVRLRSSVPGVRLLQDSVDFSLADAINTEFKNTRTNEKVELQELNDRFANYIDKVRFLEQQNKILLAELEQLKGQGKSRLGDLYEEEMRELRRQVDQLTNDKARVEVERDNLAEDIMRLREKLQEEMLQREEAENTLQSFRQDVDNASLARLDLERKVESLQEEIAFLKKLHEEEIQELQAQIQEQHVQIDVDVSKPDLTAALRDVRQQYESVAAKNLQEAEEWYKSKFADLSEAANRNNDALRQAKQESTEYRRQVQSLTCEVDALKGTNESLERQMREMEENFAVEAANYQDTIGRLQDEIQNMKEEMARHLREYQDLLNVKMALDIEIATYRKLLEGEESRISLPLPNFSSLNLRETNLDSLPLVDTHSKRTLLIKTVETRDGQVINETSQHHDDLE
UniProt P06748: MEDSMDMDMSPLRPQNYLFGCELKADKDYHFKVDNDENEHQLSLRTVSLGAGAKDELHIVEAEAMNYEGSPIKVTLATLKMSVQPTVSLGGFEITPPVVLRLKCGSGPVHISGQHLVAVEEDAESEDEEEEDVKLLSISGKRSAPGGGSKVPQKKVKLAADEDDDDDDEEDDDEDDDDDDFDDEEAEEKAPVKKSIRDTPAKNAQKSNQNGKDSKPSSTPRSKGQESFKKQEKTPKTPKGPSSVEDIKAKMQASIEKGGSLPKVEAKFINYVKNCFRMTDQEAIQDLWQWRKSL
UniProt P07355: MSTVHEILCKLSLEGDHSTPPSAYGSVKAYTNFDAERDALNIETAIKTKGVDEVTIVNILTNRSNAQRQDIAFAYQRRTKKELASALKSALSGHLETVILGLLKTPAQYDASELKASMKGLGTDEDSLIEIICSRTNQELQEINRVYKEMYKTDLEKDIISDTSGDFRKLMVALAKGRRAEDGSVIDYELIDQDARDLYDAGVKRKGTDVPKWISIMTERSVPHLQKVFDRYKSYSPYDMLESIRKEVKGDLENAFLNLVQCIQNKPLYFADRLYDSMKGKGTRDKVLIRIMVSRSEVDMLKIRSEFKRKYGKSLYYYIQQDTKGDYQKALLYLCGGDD

Each substance was assayed against T1, ubiquitin associated protein 2 (human) (UniProt Q5T6F2) (assay: affinity purification with mass spectrometry; co-IP of UBAP2 combined with 2D-LC-MS/MS in Hep3B and 293T cells; proteins found in both cell lines).
T1 sequence: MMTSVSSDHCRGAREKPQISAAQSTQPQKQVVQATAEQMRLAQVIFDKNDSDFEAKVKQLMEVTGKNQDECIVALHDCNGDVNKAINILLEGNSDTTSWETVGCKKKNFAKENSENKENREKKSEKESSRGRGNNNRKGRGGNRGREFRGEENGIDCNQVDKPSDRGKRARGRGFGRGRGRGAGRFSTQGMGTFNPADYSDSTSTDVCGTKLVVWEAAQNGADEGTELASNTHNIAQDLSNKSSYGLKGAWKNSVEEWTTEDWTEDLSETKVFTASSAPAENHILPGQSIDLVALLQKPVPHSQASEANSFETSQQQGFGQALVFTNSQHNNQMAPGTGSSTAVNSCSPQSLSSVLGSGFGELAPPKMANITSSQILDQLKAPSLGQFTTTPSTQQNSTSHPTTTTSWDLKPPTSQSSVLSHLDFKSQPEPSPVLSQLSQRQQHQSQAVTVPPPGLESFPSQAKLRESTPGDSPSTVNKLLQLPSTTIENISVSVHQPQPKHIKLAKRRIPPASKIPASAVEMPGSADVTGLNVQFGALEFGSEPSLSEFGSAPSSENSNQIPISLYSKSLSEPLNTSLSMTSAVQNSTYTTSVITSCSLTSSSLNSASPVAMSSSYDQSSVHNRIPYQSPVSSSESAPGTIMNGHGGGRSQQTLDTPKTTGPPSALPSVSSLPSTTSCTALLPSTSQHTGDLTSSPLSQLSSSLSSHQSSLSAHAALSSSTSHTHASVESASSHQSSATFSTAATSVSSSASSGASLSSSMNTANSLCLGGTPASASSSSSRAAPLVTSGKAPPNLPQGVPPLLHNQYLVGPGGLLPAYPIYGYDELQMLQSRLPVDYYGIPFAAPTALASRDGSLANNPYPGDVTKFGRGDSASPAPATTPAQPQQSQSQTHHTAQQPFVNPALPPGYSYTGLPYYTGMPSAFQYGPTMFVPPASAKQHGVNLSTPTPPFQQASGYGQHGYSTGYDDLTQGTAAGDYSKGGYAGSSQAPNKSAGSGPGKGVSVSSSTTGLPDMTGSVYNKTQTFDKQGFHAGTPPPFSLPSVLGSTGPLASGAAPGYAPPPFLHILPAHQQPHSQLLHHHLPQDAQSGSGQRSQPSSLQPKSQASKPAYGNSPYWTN

| binding | Substance |
| --- | --- |
| binds | lamin B1 (from UniProt P20700 1-586) |
| binds | alpha-enolase (from UniProt P06733 1-434) |

Further lines, the substance ahead of its results:

| Substance | binding |
| --- | --- |
| vimentin (from UniProt P08670 1-466) | binds |
| nucleolar phosphoprotein B23 (from UniProt P06748 1-294) | binds |
| Annexin A2 (from UniProt P07355 1-339) | binds |

Results are given in words; binding and its absence hold for the method and conditions named. In cells and extracts the contact can be indirect. Here binding means that the protein was enriched with, or labelled near, the bait; the list need not be complete.
